{
  "sequences": {"note": "The chains behind the UniProt entries cited, without tags or fusion partners.", "UniProt Q92830, whole entry, looked up": "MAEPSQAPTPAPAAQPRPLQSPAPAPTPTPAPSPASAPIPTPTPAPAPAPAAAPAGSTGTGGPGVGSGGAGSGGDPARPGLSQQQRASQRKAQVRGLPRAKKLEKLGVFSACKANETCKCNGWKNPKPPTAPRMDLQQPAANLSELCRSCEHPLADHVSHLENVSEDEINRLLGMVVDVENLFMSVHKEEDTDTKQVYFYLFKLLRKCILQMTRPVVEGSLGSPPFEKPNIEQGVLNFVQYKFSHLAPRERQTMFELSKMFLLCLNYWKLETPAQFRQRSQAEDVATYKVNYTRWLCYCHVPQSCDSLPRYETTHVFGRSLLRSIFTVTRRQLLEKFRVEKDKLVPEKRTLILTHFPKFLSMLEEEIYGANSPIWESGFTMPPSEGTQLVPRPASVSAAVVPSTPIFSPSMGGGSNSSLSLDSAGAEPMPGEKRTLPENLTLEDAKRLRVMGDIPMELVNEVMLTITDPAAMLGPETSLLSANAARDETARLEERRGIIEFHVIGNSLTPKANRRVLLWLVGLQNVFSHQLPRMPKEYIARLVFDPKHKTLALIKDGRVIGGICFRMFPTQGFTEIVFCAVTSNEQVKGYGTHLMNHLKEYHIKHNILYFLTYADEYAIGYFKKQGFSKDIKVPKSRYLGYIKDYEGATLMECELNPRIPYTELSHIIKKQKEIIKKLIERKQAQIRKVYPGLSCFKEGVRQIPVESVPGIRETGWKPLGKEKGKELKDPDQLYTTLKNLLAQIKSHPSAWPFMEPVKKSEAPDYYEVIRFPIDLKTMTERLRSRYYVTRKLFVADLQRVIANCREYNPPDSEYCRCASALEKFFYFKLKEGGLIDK"},
  "source": "PubChem BioAssay AID504327",
  "about": "(National Center for Advancing Translational Sciences (NCATS), 2011)",
  "note": "In all, about 390,000 compounds went through this assay and about 820 (0.21%) were called active. Inconclusive results, whose numbers are uncertain, are shown with a selection of clear calls. Calls come from the whole dose curve; as a rule, active = well fitted inhibition curve with a large enough effect; inconclusive = small, poorly fitted or top-dose-only effect, or another doubt; inactive = no such curve, though single readings can be large or run the other way. Where the call is inconclusive, the potency comes from a doubtful curve fit. % is set by controls: 0 for no effect and ±100 for the full control effect; potency is the fitted concentration of half-maximal effect.",
  "data": [
    {"biological_target": "Histone acetyltransferase KAT2A (Homo sapiens) (UniProt Q92830)", "experiment": "qHTS Assay for Inhibitors of GCN5L2", "conditions": "GCN5L2 HAT assay, ThioGlo1 CoA-SH fluorescence; activity change, negative = inhibition: at 58.9 µM (top of the series) unless noted", "outline": "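Enzyme at 20nM final was mixed with library compounds for 15 min at room temperature. Peptide H3(1-25) at 75uM, acetyl-CoA at 70uM and ThioGlo1 at 50uM were then added. Plates were read immediately and after 20 min (Ex340nm/Em540nm).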", "values": [
      {"smiles": "CC(=O)Nc1ccc(NC(=S)NC(=O)C2CC2)cc1", "Potency": "inconclusive: 15.8 µM [inhibitor, partial curve, poor fit]"},
      {"smiles": "O=C(CC(C(=O)O)P(=O)(c1ccccc1)c1ccccc1)c1ccccc1", "note": "(stereo not drawn)", "Potency": "inconclusive: 5.62 µM [inhibitor, single point]"},
      {"smiles": "COCCN1C(=O)/C(=C/c2ccc(OCc3ccc(C(=O)O)cc3)c(OC)c2)SC1=Nc1ccccc1", "Potency": "inconclusive: 31.6 µM [inhibitor, single point]"},
      {"smiles": "COc1ccccc1CNC(=O)C(CCSC)NS(=O)(=O)c1ccc2c(c1)oc(=O)n2C", "note": "(stereo not drawn)", "Potency": "inconclusive: 8.91 µM [inhibitor, single point]"},
      {"smiles": "CCS(=O)(=O)c1ncc(Cl)c(C(=O)Nc2ccccc2OC)n1", "Potency": "inactive"},
      {"smiles": "Cc1nc(C)c(C(=O)Nc2ncc([N+](=O)[O-])s2)o1", "Potency": "inconclusive: 22.4 µM [inhibitor, single point]"},
      {"smiles": "CCOC(=O)C1(CCOC)CCN(C(=O)c2ccc(CSC)o2)CC1", "Potency": "inactive"},
      {"smiles": "Nc1ccc(Oc2ccc([N+](=O)[O-])cc2[N+](=O)[O-])cc1", "Potency": "inactive"},
      {"smiles": "COc1cccc(/C=C2/Oc3ccccc3N(CC(=O)NCC3CCCO3)C2=O)c1", "note": "(stereo not drawn)", "Potency": "inactive"},
      {"smiles": "COCCOC(=O)c1[nH]c2c(c1C)C(=O)CC(c1ccccc1)C2", "note": "(stereo not drawn)", "Potency": "inactive"},
      {"smiles": "O=S(=O)(O)c1cc(O)c2c(N=Nc3ccc(Nc4ccccc4)c4c(S(=O)(=O)O)cccc34)cc(S(=O)(=O)O)cc2c1", "Potency": "active: 12.6 µM"},
      {"smiles": "CCc1ccc(S(=O)(=O)Nc2c(NC3CCCCC3)c3ccccc3oc2=O)cc1", "Potency": "inactive"},
      {"smiles": "Cc1cccc(NC(=O)C(Cc2ccccc2)N2Cc3ccccc3C2=O)c1C", "note": "(stereo not drawn)", "Potency": "inactive"},
      {"smiles": "Cn1c2ccsc2c2ncn(Cc3ccccc3F)c(=O)c21", "Potency": "inconclusive: 28.2 µM [inhibitor, single point]"},
      {"smiles": "Cc1cccc(C)c1Nc1c(-c2ccccn2)nc2ccccn12", "Potency": "inactive"},
      {"smiles": "Cc1c(Cl)cccc1NC(=O)CC1NCCNC1=O", "note": "(stereo not drawn)", "Potency": "inconclusive: 0.794 µM [inhibitor, single point]"},
      {"smiles": "COc1ccc(-c2nn(-c3ccccc3)cc2/C=C2/SC(=S)N(CCC(=O)O)C2=O)cc1", "Potency": "inconclusive: 39.8 µM [inhibitor, single point]"},
      {"smiles": "O=C(Nc1cc(Cl)cc(Cl)c1)C(NCCO)c1ccccc1", "note": "(stereo not drawn)", "Potency": "inconclusive: 39.8 µM [inhibitor, single point]"},
      {"smiles": "O=C(NC(NC(=O)c1ccccc1)C(=O)c1ccccc1)c1ccccc1", "Potency": "inactive"},
      {"smiles": "O=C(OCCOCCN=C1NS(=O)(=O)c2ccccc21)C1CC(=O)N(c2ccccc2)C1", "note": "(stereo not drawn)", "Potency": "inconclusive: 17.8 µM [inhibitor, partial curve, poor fit]"},
      {"smiles": "O=C(Cn1ncc2c3ccccc3n(Cc3cccc(Cl)c3)c2c1=O)NCc1ccccn1", "Potency": "inconclusive: 0.316 µM [inhibitor, full curve]"},
      {"smiles": "COc1ncnc2c1oc1nc(C)c3c(c12)CC(C)(C)OC3", "Potency": "inconclusive: 39.8 µM [inhibitor, single point]"},
      {"smiles": "CN(C)S(=O)(=O)c1cc(NC(=O)CSc2nn(-c3ccc(Cl)cc3)c(=S)s2)ccc1Cl", "Potency": "inactive"},
      {"smiles": "COc1c(C)oc2cc(O)ccc2c1=O", "Potency": "inconclusive: 17.8 µM [inhibitor, partial curve]"},
      {"smiles": "O=[N+]([O-])c1ccc(N2CCN(Cc3ccccc3)CC2)s1", "Potency": "inactive"},
      {"smiles": "CCOC(=O)Cc1cc(=O)c2c(=O)n(-c3ccccc3)[nH]c2[nH]1", "Potency": "inactive"},
      {"smiles": "CCOc1c2ccc(C(=O)NCc3ccc(C)cc3)cc2nn1CCOC", "Potency": "inconclusive: 25.1 µM [inhibitor, single point]"},
      {"smiles": "CC1(C(=O)NC2CCCCC2)CCC(=O)N1Cc1ccc2c(c1)OCO2", "note": "(stereo not drawn)", "Potency": "inconclusive: 10 µM [inhibitor, partial curve, poor fit]"},
      {"smiles": "CSCC[C@H](NC(=O)Cc1c(C)c2c(cc(C)c3c(C)c(C)oc32)oc1=O)C(=O)O", "Potency": "inconclusive: 14.1 µM [inhibitor, partial curve]"},
      {"smiles": "COc1cc([N+](=O)[O-])ccc1NC(=O)NNC(=O)CCc1ccccc1", "Potency": "inconclusive: 10 µM [inhibitor, partial curve, poor fit]"},
      {"smiles": "CCOC(=O)[C@@H]1[C@H]2COc3ccccc3[C@H]2N2C(=O)N(c3cccc(Cl)c3)C(=O)[C@@]12C", "Potency": "inconclusive: 28.2 µM [inhibitor, single point]"},
      {"smiles": "c1ccc(OCc2nnc3n2N=C(c2ccccc2)CS3)cc1", "Potency": "inconclusive: 39.8 µM [inhibitor, single point]"},
      {"smiles": "COc1ccc(OC)c(S(=O)(=O)NCCO)c1", "Potency": "inconclusive: 35.5 µM [inhibitor, single point]"},
      {"smiles": "Cc1cc(OCCCSc2nc(-c3ccc(C(C)(C)C)cc3)nc3cc(=O)[nH]n23)ccc1Cl", "Potency": "inconclusive: 35.5 µM [inhibitor, single point]"},
      {"smiles": "CCc1nnc(/N=C/c2c(O)n(-c3ccc(Cl)cn3)c(=O)c3ccccc23)s1", "Potency": "inactive"},
      {"smiles": "COc1cc(/C=C(/C#N)C(=O)Nc2ccccc2)c(Br)cc1OCc1ccc(C(=O)O)cc1", "Potency": "inconclusive: 28.2 µM [inhibitor, single point]"},
      {"smiles": "O=C(NCC(=O)N(CC1CCCO1)C1(C(=O)NC2CCCC2)CCCCC1)c1ccccc1", "note": "(stereo not drawn)", "activity change, negative = inhibition": "inconclusive: -73.9% [inhibitor]"},
      {"smiles": "COc1cc(C2C(C#N)=C(N)OC3=C2C(=O)CC(C)(C)C3)cc([N+](=O)[O-])c1O", "note": "(stereo not drawn)", "Potency": "inconclusive: 39.8 µM [inhibitor, single point]"},
      {"smiles": "O=C(O)[C@@H]1C[C@H](C(=O)O)N1", "Potency": "inconclusive: 39.8 µM [inhibitor, single point]"},
      {"smiles": "Cc1ccc(CNC(=O)CCC(=O)N2CC(C)Oc3ccc(Cl)cc32)cc1", "note": "(stereo not drawn)", "Potency": "inconclusive: 39.8 µM [inhibitor, single point]"},
      {"smiles": "CCC(NC(=O)Cc1c(C)c2c(cc(C)c3c(C)c(C)oc32)oc1=O)C(=O)O", "note": "(stereo not drawn)", "Potency": "inconclusive: 28.2 µM [inhibitor, single point]"},
      {"smiles": "CCOC(=O)N1CCN(C(=O)c2nn(C)c3c2CSc2ccccc2-3)CC1", "Potency": "inconclusive: 7.08 µM [inhibitor, full curve, poor fit]"},
      {"smiles": "NC(=O)CN1C(=O)C2C3C=CC(C3)C2C1=O", "note": "(stereo not drawn)", "Potency": "inconclusive: 31.6 µM [inhibitor, single point]"}
    ]}
  ]
}
